According to publication PMC5387032 (Photosynthesis Research, 2017):
Results are given in words; binding and its absence hold for the method and conditions named. Some binding calls cover weakened binding; strength is not graded here. Tags and fused reporters may be left off the sequences shown.

Sequences of proteins named here, by UniProt entry; tags and fusion partners are left off.
UniProt Q8DIS5: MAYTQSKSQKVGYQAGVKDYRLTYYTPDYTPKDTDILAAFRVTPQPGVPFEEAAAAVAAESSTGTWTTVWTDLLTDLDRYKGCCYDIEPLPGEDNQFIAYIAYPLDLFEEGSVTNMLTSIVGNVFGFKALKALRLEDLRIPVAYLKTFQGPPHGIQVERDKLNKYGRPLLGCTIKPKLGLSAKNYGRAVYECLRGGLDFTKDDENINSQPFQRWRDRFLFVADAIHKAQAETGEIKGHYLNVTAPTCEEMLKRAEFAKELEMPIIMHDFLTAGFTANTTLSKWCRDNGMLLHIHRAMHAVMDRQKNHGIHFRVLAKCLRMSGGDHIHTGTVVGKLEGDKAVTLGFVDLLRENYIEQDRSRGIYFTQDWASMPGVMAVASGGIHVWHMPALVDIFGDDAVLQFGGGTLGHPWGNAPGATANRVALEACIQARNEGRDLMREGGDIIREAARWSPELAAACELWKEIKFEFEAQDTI

Assays:
[1] = target: RbcL from Thermosynechococcus elongatus, made in E. coli (Thermosynechococcus elongatus) (UniProt Q8DIS5); assay: co-purification (ammonium sulfate precipitation, ion exchange chromatography); complexes formed on co-expression in E. coli Rosetta; ammonium sulfate precipitation and Q-Sepharose, 20 mM Tris pH 8.0, 2 mM β-mercaptoethanol, 0–500 mM NaCl gradient
[2] = target: RbcL from Thermosynechococcus elongatus, made in E. coli (Thermosynechococcus elongatus) (UniProt Q8DIS5); assay: native gel or EMSA; raf1 from Synechocystis co-expressed with rbcL genes in E. coli (or rbcL alone); crude extracts separated by native PAGE and probed with anti-RbcL or anti-RAF1 antibodies
[3] = target: RbcL from Thermosynechococcus elongatus, made in E. coli (Thermosynechococcus elongatus) (UniProt Q8DIS5); assay: native gel or EMSA; purified proteins or complexes (2.5 µg, or 5 µg where in excess) mixed, incubated 10 min at room temperature, native PAGE, Coomassie-stained; both purified

Measured: binding

B1: RAF1 from Synechocystis sp. PCC 6803, untagged, made in E. coli (protein)
chain: MTHSPESNPTVSAAEAAELIRSLLHKEGTWVDWGKKCQQLQKAGYGAEEIFEQSGFQKVQQNLVIVASQVYESLVKQGIDETVLSYYRGPKSDVLYELRILNHQQRAIAAVEAQQKNLAADEAKELAKAFQEFGYLSQLPEGFTDHPGDALAYQCWKLARQKKNLPERTRLIVKGLKFAHSPNARQAIEKLLTDLTAQPSRKAPLVPVFRLEEDQEAARLIPVAGTFPLQPQAVQAVQSLEQVEPFGLVSYQGEGAVVPVPQWQAILTAEDPVAIFCPAGQVSESLARKDEQVLVVVDRSKKIWNDGSYFLLNQGETVAIQWCETEPEREILAQVVLVLRPKKIFDANNLREPWQMDD
binds: all assays above
